Some compounds share one wording; it may come from a single statement.
assay: Wax scrub test with neat solvents on waxed vinyl floor tile; settings: neat solvent; after 1000 strokes for those that did not remove it

Removal of wax layer, did not remove the wax layer:
C=C(C)[C@H]1CC=C(C)CC1 [d-limonene]
CC(O)CC(=O)OC(C)C (stereo not drawn) [i-propyl 3-hydroxybutyrate, isopropyl 3-hydroxybutyrate]
CCCCOC(=O)CC(C)O (stereo not drawn) [n-butyl 3-hydroxybutyrate]

From US9506017B2, “Aqueous cleaning compositions including an alkyl 3-hydroxybutyrate” (Eastman Chemical Company, priority 2013, dated 2016)
